Results taken from the supplement of paper PMC9254222.
Counter-ions that a name gives are not always drawn. In all, about 1,100 compounds were measured (“Wnt reporter firefly/Renilla luciferase ratio relative to plate median”: median about 1.1, highest 2% from about 1.6 on). Only a part is listed here, and it is no random draw.

System: HEK293T (UBE3A T485A transfected, BAR Wnt reporter)
Test: Wnt reporter firefly/Renilla luciferase ratio relative to plate median (fold (linear ratio)); higher = more Wnt/beta-catenin reporter activation
Conditions: 24 h
Summary of the method: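 Chemicals at 0.01–100 uM were left on transfected HEK293T cells for 24 h, after a four-hour wait following transfection. The cells held a BAR firefly luciferase Wnt reporter, TK-Renilla and an expression plasmid. Wnt activity, as the firefly/Renilla ratio from a Dual-Glo luciferase readout, and cell health, as raw Renilla, were median-centred within each plate. Results average four biological replicates.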

Compound | Wnt reporter firefly/Renilla luciferase ratio (concentration: 0.1 uM) | Wnt reporter firefly/Renilla luciferase ratio (concentration: 1 uM) | Wnt reporter firefly/Renilla luciferase ratio (concentration: 10 uM) | Wnt reporter firefly/Renilla luciferase ratio (concentration: 100 uM) | Wnt reporter firefly/Renilla luciferase ratio (concentration: 0.01 uM)
O=C1CCC(N2C(=O)c3ccccc3C2=O)C(=O)N1 (centres undefined) [Thalidomide] | 0.974 | 1.1 | 1.2 | 1.26 | –
CCCOc1sc(C(=O)N2CCC(c3cc(CN)ccc3F)CC2)c(C)c1Br.Cl | 0.728 | 1.11 | 0.966 | 0.757 | –
Cc1cnc(-c2cnc(NCCNc3ccc(C#N)cn3)nc2-c2ccc(Cl)cc2Cl)[nH]1 | – | 5.86 | 128 | – | –
CCOc1ccc2[nH]cc(C(=O)NCc3ccccc3)c(=O)c2n1 | 1.08 | 0.96 | 0.631 | 0.189 | –
CCOC(=O)NCCOc1ccc(Oc2ccccc2)cc1 [Fenoxycarb] | 1.32 | 1.17 | 0.911 | 0.32 | 1.13
CCCCOC(=O)CC(CC(=O)OCCCC)(OC(C)=O)C(=O)OCCCC [Acetyl tributyl citrate] | 0.974 | 1.19 | 0.975 | 1.1 | –
Cc1c(C(=O)O)c(O)cc2c1C(=O)c1c(O)c([C@@H]3O[C@H](CO)[C@@H](O)[C@H](O)[C@H]3O)c(O)c(O)c1C2=O [Carminic acid] | 0.9 | 1.02 | 1.08 | – | –
CC#C[C@]1(O)CC[C@H]2[C@@H]3CCC4=CC(=O)CCC4=C3[C@@H](c3ccc(N(C)C)cc3)C[C@@]21C [Mifepristone] | 0.957 | 0.893 | 0.624 | 0.0932 | –
COC(C)COC(C)COC(C)CO (centres undefined) [Tripropylene glycol monomethyl ether] | 0.768 | 0.877 | 0.851 | 0.939 | –
O=C(O)c1cc(/N=N/c2ccc(S(=O)(=O)Nc3ccccn3)cc2)ccc1O [Sulfasalazine] | 0.944 | 0.993 | 1.33 | 3.01 | –
Nc1cccc(N)c1 [1,3-Benzenediamine] | 1.06 | 0.971 | 0.946 | 0.731 | –
CC(C)=CCCC(C)CCO (centres undefined) [Citronellol] | – | – | – | 1.64 | –
C=C(C)C(N)=O [Methacrylamide] | 1.22 | 1.04 | 1.05 | 1.25 | –
CCN(C(=O)c1cc(C)cc(OC[C@H](C)Nc2ccncc2)c1)C(C)C.Cc1ccc(S(=O)(=O)O)cc1 | 0.881 | 1.12 | 1.08 | 0.226 | –
Nc1ccccc1N [1,2-Phenylenediamine] | 1.28 | 1.1 | 1.12 | 0.431 | –
CN(C)c1ccc(C(=C2C=CC(=[N+](C)C)C=C2)c2ccc(N(C)C)cc2)cc1.[Cl-] [Gentian Violet] | 0.538 | – | – | – | –
O=c1[nH]c2ccc(S(=O)CCN3CCC(Cc4ccc(F)cc4)CC3)cc2o1 (centres undefined) [Besonprodil] | 1.11 | 0.965 | 0.993 | 0.313 | –
CCOC(=O)COc1cc(-n2ncc(C(F)(F)F)c(C)c2=O)c(F)cc1Cl [Flufenpyr-ethyl] | 1.28 | 1.01 | 1.48 | 1.47 | 1.17
O=C(OCCCCCOC(=O)c1ccccc1)c1ccccc1 [Pentane-1,5-diyl dibenzoate] | 0.256 | 0.526 | 0.25 | 0.644 | –
CC1CCC(NC(=O)N(CCCl)N=O)CC1 (centres undefined) [Semustine] | 0.921 | 0.986 | 0.864 | 0.475 | 1.09

Compound | Wnt reporter firefly/Renilla luciferase ratio (concentration: 0.1 uM) | Wnt reporter firefly/Renilla luciferase ratio (concentration: 1 uM) | Wnt reporter firefly/Renilla luciferase ratio (concentration: 10 uM) | Wnt reporter firefly/Renilla luciferase ratio (concentration: 100 uM) | Wnt reporter firefly/Renilla luciferase ratio (concentration: 0.01 uM)
CCCCCCCC1CCC(=O)O1 (centres undefined) [5-Heptyldihydro-2(3H)-furanone] | 1.05 | 1.05 | 0.952 | 1.04 | –
CN(C)C=O [N,N-Dimethylformamide] | 1.04 | 1.11 | 1.16 | 1.17 | –
O.O=C1[N-]S(=O)(=O)c2ccccc21.[Na+] [Sodium saccharin hydrate] | 1.03 | 1.01 | 1.25 | 1.45 | –
Cc1c(C)c2c(c(C)c1O)CCC(C)(CCCC(C)CCCC(C)CCCC(C)C)O2 (stereo not drawn) [Vitamin E (alpha-tocopherol)] | 1.04 | 1.18 | 0.99 | 1.51 | 0.793
O=C1c2c(O)cccc2Cc2cccc(O)c21 [Anthralin] | 0.825 | 1.04 | 1.46 | 0.798 | –
CC(C)(C)C(O)C(Cc1ccc(Cl)cc1)n1cncn1 (centres undefined) [Paclobutrazol] | 1.07 | 1.14 | 1.28 | 1.29 | 0.837
CN(C)CCCN1c2ccccc2Sc2ccc(Cl)cc21.Cl [Chlorpromazine hydrochloride] | 1.22 | 1.15 | 1.2 | 0.181 | –
O=C(O)CCN(C1(C(=O)NO)CCCC1)S(=O)(=O)c1ccc(Oc2ccc(F)cc2)cc1 | 1.04 | 1.1 | 0.704 | 1.04 | –
COc1ccc2c(c1)c(CC(=O)O)c(C)n2C(=O)c1ccc(Cl)cc1 [Indomethacin] | 1.22 | 1.12 | 1.19 | 0.189 | –
CCc1ccc(O)c(C(C)(C)C)c1 [2-tert-Butyl-4-ethylphenol] | 0.745 | 1 | 0.938 | 0.976 | –
CN(C)C(=O)NC1(c2ccccc2)CCN(CC[C@@]2(c3ccc(F)c(F)c3)CN(C(=O)c3ccccc3)CCO2)CC1.Cl | 1.23 | 1.04 | 0.891 | 0.365 | –
O=C(O)CN(CC(=O)O)CC(=O)O [Nitrilotriacetic acid] | 0.925 | 1.21 | 1.11 | 1.25 | –
CNCc1cc(F)ccc1Oc1ccc(Cl)c(Cl)c1 | 1.42 | 0.925 | 0.838 | 0.472 | –
O=S1(=O)CCCO1 [1,3-Propane sultone] | 0.785 | 0.883 | 1.1 | 1.24 | –
Cc1cccc(C)c1O [2,6-Dimethylphenol] | 1.32 | 0.992 | 1.45 | 1.16 | –
CCOc1cccc(-n2cc(C(=O)N3CCN(c4cc(C(=O)[O-])c5ccccc5c4)CC3)nc2-c2ccc(C)cc2)c1.[Na+] | 0.978 | 0.953 | 0.901 | 0.333 | –
CC(=O)/C(C)=C/C1C(C)=CCCC1(C)C (stereo not drawn) [alpha-Isomethylionone] | 1.53 | 0.895 | 1.3 | 1.4 | –
O=c1ccn(C2OC(COP(=O)(O)OP(=O)(O)OP(=O)(O)O)C(O)C2O)c(=O)[nH]1 (centres undefined) | – | – | – | 1.94 | –
CC[C@H](C)C(=O)O[C@H]1C[C@H](O)C=C2C=C[C@H](C)[C@H](CC[C@@H](O)C[C@@H](O)CC(=O)[O-])[C@H]21.[Na+] [Pravastatin sodium] | 1.49 | 1.04 | 1.11 | 1.49 | –

Not a retest: two of the compounds above.
Compound | Wnt reporter firefly/Renilla luciferase ratio (concentration: 0.1 uM) | Wnt reporter firefly/Renilla luciferase ratio (concentration: 1 uM) | Wnt reporter firefly/Renilla luciferase ratio (concentration: 10 uM) | Wnt reporter firefly/Renilla luciferase ratio (concentration: 100 uM) | Wnt reporter firefly/Renilla luciferase ratio (concentration: 0.01 uM)
O.O=C1[N-]S(=O)(=O)c2ccccc21.[Na+] [Sodium saccharin hydrate] | 1.03 | 1.01 | 1.25 | 1.45 | –
Cc1c(C)c2c(c(C)c1O)CCC(C)(CCCC(C)CCCC(C)CCCC(C)C)O2 (stereo not drawn) [Vitamin E (alpha-tocopherol)] | 1.04 | 1.18 | 0.99 | 1.51 | 0.793
